Laboratory results reported in the supplement of paper PMC12823440, “Inhibitors supercharge kinase turnover through native proteolytic circuits” (Nature, 2025).
Where a name gives a salt, the structure may show the parent alone. Some of the results follow. Hit calls seldom repeat between salt and free forms of one compound.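 In K562 cells expressing nanoluciferase-fused kinases, luminescence was recorded at 4 h intervals between 2 and 18 h, normalized as percent of control with DMSO at 100% and a positive control at 0%. A significant (2 sigma) signal drop marks a time point as decreased. The authors' rule for a hit is not shown and takes in more than the number of time points.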

The chains behind the UniProt entries cited, without tags or fusion partners. Where a name states a change or a piece, a line headed by the entry shows the natural chain unless it says otherwise.
UniProt Q05397, whole entry, looked up: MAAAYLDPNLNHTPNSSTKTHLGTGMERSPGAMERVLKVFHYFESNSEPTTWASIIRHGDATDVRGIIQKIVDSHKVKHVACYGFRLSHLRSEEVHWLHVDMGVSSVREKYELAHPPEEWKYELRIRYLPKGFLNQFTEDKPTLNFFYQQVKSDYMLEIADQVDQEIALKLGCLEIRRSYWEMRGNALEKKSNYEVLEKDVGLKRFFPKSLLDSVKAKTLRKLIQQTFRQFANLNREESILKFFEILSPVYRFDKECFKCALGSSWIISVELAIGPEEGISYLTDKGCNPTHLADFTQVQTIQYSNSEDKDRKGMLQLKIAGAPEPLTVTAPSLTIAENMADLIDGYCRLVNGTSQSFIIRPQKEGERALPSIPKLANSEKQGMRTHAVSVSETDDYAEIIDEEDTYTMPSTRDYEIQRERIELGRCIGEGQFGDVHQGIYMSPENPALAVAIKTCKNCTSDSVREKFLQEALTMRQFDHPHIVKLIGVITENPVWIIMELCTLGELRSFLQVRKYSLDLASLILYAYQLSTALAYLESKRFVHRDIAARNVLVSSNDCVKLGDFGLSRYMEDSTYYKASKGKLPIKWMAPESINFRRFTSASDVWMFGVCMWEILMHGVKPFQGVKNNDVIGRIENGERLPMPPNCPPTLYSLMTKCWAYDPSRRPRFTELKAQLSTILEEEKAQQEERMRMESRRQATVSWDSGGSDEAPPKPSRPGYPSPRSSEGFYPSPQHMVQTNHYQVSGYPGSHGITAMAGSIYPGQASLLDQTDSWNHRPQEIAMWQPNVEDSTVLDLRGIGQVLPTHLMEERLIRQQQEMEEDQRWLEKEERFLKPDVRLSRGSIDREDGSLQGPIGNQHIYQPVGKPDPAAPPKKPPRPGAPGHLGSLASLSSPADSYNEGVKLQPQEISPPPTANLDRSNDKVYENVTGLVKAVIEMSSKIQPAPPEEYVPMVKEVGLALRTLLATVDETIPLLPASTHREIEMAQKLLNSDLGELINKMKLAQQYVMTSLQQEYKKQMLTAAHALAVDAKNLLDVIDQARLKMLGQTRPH
UniProt Q14289, whole entry, looked up: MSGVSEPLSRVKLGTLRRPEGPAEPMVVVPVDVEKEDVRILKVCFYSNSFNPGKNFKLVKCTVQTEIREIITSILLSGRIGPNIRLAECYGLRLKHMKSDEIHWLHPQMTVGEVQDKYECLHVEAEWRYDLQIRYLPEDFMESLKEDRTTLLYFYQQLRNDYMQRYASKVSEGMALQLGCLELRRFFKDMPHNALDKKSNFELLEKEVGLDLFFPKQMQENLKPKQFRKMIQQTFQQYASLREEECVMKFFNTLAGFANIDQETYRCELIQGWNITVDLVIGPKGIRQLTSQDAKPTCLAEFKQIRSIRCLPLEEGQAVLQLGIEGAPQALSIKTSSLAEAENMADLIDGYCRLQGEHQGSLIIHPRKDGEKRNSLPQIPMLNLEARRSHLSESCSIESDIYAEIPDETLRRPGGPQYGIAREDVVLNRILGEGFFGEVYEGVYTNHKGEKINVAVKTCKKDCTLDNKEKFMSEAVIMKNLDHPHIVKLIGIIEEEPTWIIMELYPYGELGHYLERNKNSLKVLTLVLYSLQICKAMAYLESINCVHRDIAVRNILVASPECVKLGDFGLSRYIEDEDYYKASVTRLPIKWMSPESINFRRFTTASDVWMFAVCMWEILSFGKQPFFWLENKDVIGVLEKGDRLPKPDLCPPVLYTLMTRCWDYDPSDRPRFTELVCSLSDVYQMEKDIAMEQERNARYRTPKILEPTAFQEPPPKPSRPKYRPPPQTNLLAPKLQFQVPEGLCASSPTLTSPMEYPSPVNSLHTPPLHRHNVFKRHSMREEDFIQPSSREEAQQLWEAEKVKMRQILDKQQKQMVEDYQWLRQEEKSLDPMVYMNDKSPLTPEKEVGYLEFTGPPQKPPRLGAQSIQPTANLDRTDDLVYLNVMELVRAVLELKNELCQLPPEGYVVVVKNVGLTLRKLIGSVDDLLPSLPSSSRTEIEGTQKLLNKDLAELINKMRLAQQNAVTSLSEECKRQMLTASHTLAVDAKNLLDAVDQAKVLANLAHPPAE
UniProt P07949, whole entry, looked up: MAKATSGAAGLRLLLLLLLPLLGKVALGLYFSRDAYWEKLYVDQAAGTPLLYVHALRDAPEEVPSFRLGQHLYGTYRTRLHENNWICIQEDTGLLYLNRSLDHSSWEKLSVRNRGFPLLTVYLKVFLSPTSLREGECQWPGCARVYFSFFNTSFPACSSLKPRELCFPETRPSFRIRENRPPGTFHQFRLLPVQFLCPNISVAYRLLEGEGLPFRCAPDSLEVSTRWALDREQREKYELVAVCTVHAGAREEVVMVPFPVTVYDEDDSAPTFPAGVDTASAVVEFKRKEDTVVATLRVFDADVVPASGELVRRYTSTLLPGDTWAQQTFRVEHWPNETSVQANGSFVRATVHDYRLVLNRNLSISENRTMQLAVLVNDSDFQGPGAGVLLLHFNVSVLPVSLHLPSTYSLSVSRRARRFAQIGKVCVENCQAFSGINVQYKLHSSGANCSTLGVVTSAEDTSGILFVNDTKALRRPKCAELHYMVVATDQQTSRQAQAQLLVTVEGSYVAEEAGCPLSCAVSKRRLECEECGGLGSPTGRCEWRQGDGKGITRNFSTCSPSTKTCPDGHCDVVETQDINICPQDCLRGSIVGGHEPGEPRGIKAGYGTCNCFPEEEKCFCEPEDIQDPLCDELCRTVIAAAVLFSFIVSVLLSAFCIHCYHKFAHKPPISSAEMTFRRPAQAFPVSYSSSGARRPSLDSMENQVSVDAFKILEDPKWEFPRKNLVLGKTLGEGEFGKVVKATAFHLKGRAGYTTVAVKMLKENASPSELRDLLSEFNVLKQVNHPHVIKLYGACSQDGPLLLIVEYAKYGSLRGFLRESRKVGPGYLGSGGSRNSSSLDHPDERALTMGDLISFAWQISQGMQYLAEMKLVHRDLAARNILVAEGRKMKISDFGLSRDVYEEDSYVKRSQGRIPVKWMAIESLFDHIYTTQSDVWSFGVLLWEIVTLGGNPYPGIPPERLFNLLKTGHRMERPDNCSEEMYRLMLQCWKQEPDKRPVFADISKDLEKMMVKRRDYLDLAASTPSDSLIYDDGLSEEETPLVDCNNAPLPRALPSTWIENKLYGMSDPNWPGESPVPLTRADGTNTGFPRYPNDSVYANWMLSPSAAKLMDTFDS
UniProt P07949, whole entry M918T, looked up: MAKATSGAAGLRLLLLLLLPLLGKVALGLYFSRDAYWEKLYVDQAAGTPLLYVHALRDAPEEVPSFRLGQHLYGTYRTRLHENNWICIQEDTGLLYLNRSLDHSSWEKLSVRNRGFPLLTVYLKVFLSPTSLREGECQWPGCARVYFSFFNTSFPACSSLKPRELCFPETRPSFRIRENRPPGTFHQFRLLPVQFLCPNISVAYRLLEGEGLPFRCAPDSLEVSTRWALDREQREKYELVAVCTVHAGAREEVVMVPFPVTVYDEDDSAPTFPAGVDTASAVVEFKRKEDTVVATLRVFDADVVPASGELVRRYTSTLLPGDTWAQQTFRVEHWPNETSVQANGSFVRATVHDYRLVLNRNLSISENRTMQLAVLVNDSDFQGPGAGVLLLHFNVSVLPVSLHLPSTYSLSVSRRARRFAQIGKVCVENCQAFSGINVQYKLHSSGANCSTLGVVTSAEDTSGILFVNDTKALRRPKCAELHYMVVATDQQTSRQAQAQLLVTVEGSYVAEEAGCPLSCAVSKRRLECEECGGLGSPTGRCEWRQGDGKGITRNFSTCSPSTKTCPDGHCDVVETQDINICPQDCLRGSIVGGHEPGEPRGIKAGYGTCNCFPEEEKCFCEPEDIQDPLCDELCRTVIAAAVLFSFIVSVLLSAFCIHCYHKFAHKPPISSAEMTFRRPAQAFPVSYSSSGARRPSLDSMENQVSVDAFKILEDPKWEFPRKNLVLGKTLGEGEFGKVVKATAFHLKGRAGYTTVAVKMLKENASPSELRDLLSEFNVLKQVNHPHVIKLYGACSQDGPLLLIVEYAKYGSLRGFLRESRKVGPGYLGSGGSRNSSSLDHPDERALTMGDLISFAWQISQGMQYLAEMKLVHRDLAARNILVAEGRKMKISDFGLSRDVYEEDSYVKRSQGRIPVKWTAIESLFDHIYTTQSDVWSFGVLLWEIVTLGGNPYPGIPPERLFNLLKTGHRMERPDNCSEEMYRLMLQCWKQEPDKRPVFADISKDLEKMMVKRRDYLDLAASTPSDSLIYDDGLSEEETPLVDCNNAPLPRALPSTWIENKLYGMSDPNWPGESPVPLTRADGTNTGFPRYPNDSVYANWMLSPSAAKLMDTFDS
UniProt Q9BRS2: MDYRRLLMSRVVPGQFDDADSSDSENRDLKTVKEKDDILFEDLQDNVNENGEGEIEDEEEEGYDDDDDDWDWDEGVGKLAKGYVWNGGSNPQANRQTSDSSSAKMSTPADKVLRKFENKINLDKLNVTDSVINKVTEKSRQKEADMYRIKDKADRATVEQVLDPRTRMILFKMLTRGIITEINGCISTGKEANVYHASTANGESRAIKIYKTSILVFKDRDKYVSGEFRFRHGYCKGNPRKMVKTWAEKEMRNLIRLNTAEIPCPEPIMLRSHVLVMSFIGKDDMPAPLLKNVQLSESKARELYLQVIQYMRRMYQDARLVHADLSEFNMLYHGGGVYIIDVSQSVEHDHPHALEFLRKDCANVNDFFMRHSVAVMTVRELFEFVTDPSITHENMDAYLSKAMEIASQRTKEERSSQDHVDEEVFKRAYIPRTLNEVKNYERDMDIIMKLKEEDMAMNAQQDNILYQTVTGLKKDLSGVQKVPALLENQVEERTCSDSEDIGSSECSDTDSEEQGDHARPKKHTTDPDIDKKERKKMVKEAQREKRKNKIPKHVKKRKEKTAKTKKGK
UniProt Q13546: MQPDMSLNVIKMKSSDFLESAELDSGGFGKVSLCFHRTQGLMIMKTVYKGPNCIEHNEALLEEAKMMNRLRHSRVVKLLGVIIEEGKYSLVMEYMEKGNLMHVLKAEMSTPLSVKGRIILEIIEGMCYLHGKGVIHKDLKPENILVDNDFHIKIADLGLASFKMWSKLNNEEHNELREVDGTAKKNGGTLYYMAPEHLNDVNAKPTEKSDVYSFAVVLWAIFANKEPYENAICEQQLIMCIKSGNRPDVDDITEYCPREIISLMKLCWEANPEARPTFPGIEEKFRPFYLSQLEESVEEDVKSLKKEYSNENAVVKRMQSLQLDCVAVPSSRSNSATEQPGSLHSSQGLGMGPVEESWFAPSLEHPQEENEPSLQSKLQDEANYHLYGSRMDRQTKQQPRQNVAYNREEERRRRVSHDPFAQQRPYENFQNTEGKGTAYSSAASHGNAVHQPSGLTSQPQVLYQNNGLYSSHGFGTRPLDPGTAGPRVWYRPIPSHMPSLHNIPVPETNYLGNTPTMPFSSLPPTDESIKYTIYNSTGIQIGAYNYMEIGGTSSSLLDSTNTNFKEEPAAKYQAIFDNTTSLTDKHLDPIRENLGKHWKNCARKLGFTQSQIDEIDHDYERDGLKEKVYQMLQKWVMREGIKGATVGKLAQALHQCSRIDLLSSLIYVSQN

Experiments:
Test in all cases: number of time points (of 5) at which kinase-Nluc abundance scored as decreased, DMSO-normalised (count); higher = more persistent destabilization
Settings in all cases: K562; 2-18 h
PRKCA = PRKCA (UniProt P17252)
PTK2 = PTK2 (UniProt Q05397)
PTK2B = PTK2B (UniProt Q14289)
RAF1 = RAF1 (UniProt P04049)
[1] = biological target: RAF1_S257L (clone: RAF1_mut) (UniProt P04049)
RET = RET (UniProt P07949)
[2] = biological target: RET_M918T (clone: RET_mut) (UniProt P07949)
RIOK1 = RIOK1 (UniProt Q9BRS2)
RIPK1 = RIPK1 (UniProt Q13546)
RIPK2 = RIPK2 (UniProt O43353)

SMILES	number of time points (PRKCA)	number of time points (PTK2)	number of time points (PTK2B)	number of time points (RAF1)	number of time points [1]	number of time points (RET)	number of time points [2]	number of time points (RIOK1)	number of time points (RIPK1)	number of time points (RIPK2)
Cn1cc(C2=C(c3c4n(c5ccccc35)CCC(CN)C4)C(=O)NC2=O)c2ccccc21 (stereo not given) [Bisindolylmaleimide X (hydrochloride)] (2.5 µM)	0	0	0	0	0	0	0	0	0	0
C=CC(=O)Nc1cc(C(=O)NC)cc(-c2n[nH]c3ccccc23)c1 (10 µM)	0	2	0	0	1	0	0	1	3	3
CCCCCC1CC1CC1CC1CCCCCCCC(=O)O (stereo not given) (10 µM)	0	0	0	0	0	0	0	0	0	0
O=C(Nc1nccs1)C(c1cc(F)ccc1O)N1Cc2ccc(-c3ccc(N4CCNCC4)cc3)cc2C1=O (racemic) (10 µM)	0	0	0	0	2	0	0	0	0	0
Cc1ccc(-c2csc(Cn3nc(CC4OCCCO4)c4ccccc4c3=O)n2)cc1 (10 µM)	0	0	0	0	0	0	0	0	0	0
CS(=O)(=O)N1CCc2c(-c3cnc(N)nc3)nc(N3CCOCC3)nc21 (10 µM)	0	0	0	0	0	0	0	0	0	0
Cc1cccc(Cn2nc(C)c3c(NC(=O)c4csc5c(N)ncnc45)cccc32)n1 (10 µM)	0	0	0	0	0	0	0	0	0	0
CNS(=O)(=O)C[C@H]1CC[C@H](N(C)c2[nH]cnc3nccc2-3)CC1 [Oclacitinib (maleate)] (10 µM)	0	0	0	0	0	0	0	0	0	0
Cc1ccc(-n2c(-c3ccc(O)cc3O)n[nH]c2=O)cc1 (10 µM)	0	2	0	3	5	0	0	0	3	3
CC[C@H](C)[C@H](NC(=O)[C@H](CCCCN)NC(=O)[C@H](CC(C)C)NC(=O)[C@@H]1CCCN1C(=O)[C@H](CCC(=O)O)NC(=O)[C@H](Cc1ccc(O)cc1)NC(=O)[C@@H](NC(=O)[C@H](CO)NC(=O)CNC(=O)[C@H](CO)NC(=O)[C@H](CCCN=C(N)N)NC(=O)[C@H](CCCCN)NC(=O)[C@@H](NC(=O)[C@@H](N)CCCN=C(N)N)[C@@H](C)O)C(C)C)C(=O)O [Malantide] (10 µM)	0	0	0	0	0	0	0	0	0	0
CC(C)(C)NS(=O)(=O)c1cncc(-c2cc(F)c3nc(N)nn3c2)c1 (10 µM)	0	0	0	0	0	0	0	0	0	0
Cc1occ2c1C(=O)c1c(O)ccc(O)c1C2 (2.5 µM)	0	0	0	0	0	0	0	0	0	0
CNCCOc1ccccc1C(C)(C)Nc1nccn(-c2cc(C(=O)NC3CC3)ccc2C)c1=O [p38α inhibitor 2] (10 µM)	2	0	0	0	0	0	0	0	0	0
CCCCNc1ncc2c(-c3ccc(CN4CCN(C)CC4)cc3)cn([C@H]3CC[C@H](O)CC3)c2n1 [UNC2025 (hydrochloride)] (2.5 µM)	0	1	0	0	0	0	0	1	1	0
CNC(=O)c1nnc(NC(=O)C2CC2)cc1Nc1cccc(-c2ncn(C)n2)c1OC [Deucravacitinib] (10 µM)	0	0	0	0	0	0	0	0	0	0
CC[C@H](C)[C@@H]1NC(=O)[C@@H]2CCCN2C(=O)[C@@H]2CCCN2C(=O)[C@@H]2CCCN2C(=O)[C@H](CC(C)C)NC(=O)CNC(=O)CNC(=O)[C@H](Cc2ccccc2)NC1=O [Heterophyllin B] (10 µM)	0	0	0	0	0	0	0	0	0	0

An excerpt from above, limited to number of time points (RIPK2):

| SMILES | number of time points (RIPK2) |
| --- | --- |
| CNS(=O)(=O)C[C@H]1CC[C@H](N(C)c2[nH]cnc3nccc2-3)CC1 [Oclacitinib (maleate)] (10 µM) | 0 |
| Cc1ccc(-n2c(-c3ccc(O)cc3O)n[nH]c2=O)cc1 (10 µM) | 3 |
